Laboratory results: patent US20090155283A1 (published 2009)
Where a chain is given by its changes, count along the chain named. These are yes or no findings as the source states them, for the method shown. Some results given as binding are weak or reduced against the parent protein; the word gives no strength. Each block holds one binder with its values, some of them ahead of it.

The chains behind the UniProt entries cited, without tags or fusion partners. Residues count along the entry.
UniProt P14778, residues 18-332: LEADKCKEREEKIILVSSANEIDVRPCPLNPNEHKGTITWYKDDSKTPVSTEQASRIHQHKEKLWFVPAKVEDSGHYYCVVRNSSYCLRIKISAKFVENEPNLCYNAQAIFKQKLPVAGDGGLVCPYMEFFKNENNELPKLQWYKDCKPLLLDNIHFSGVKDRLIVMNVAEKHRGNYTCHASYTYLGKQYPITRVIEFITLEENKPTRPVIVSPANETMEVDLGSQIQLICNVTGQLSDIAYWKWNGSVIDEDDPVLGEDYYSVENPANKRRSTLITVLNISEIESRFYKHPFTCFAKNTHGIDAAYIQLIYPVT

Columns and labels:
[1] = biological target: recombinant IL-1R1 (R&D Systems) (human) (UniProt P14778); experiment: SPR (Biacore 3000), IL-1R1 on a CM5 chip, dAb injected straight after IL-1ra
[2] = biological target: recombinant IL-1R1 (R&D Systems) (human) (UniProt P14778); experiment: SPR sensorgram (FIG. 3A), IL-1R1 immobilized, dAb injected after IL-1ra
[3] = biological target: recombinant IL-1R1 (R&D Systems) (human) (UniProt P14778); experiment: supernatant receptor binding assay (competition ELISA against IL-1β on captured IL-1R1)
[4] = biological target: recombinant IL-1R1 (R&D Systems) (human) (UniProt P14778); experiment: SPR off-rate screening of expression supernatants on an IL-1R1 chip, compared with the parental dAb; no off-rate printed

binding [1]: binds
binding [2]: binds
B1: DOM4-122-23 (other)
VL: DIQMTQSPSSLSASVGDRVTITCRASQWIGRELRWYQQKPGKAPMFLIYHASRLQRGVPSRFSGSGSGTDFTLTISSLQPEDFATYYCQQYHGWPLTFGQGTKVEIKR

binding [3]: binds
B2: DOM4-129 (protein)
VL: B1 VL with W28N, G30D, F46L, R56S, G93D, W94F

binding [4]: binds
B3: DOM4-129-1 (other)
VL: B1 VL with W28N, G30D, G93D, W94F
